## Library screen at single concentrations

Protein sequences, listed by entry. Tags and fused reporters are not part of them. Residues count along the entry.
UniProt A4I591, 1-473: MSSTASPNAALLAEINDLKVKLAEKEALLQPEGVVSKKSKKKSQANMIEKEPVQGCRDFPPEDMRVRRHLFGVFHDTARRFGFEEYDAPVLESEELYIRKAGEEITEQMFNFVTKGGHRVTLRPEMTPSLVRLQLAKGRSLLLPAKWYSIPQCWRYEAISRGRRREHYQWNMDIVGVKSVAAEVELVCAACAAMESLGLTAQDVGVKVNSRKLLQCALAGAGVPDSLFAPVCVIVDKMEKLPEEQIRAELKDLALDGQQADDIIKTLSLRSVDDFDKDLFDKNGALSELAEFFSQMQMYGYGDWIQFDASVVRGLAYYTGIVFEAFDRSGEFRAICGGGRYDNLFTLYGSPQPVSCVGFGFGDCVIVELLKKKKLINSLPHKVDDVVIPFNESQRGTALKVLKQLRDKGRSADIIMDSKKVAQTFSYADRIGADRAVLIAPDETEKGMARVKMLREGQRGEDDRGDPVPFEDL
UniProt Q8IDJ8, 1-583: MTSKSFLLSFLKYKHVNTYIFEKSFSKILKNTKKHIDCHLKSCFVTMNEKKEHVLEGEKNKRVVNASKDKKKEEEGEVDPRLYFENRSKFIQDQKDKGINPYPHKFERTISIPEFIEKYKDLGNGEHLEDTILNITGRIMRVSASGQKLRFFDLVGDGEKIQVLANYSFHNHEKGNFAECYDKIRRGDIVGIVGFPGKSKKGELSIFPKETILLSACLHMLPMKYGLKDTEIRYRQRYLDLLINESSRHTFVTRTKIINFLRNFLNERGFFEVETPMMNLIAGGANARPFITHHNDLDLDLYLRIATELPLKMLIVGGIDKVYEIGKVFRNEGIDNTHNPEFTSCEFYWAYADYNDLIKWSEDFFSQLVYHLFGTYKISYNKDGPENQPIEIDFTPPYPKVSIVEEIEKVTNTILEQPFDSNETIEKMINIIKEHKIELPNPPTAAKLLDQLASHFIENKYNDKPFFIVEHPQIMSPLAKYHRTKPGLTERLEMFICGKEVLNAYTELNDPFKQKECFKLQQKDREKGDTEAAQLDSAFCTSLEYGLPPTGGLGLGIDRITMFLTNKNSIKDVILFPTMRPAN

Source: ChEMBL document CHEMBL3988442, “University of Dundee, Small-Polar-MMV Screening Library” (2021).

LiHisRS: 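Histidine-tRNA ligase, Leishmania infantum (UniProt A4I591). Enzyme assay of histidyl-tRNA synthetase; the read-out is not stated. Compounds at 30 µM. The record gives no direction; compounds that gave an IC50 in retests scored well above the rest, so higher reads as stronger inhibition. The assay is labelled LdHisRS but filed under L. infantum. Size under these conditions: about 69,000 compounds, about 410 of them at 50% or above in at least one test.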
PfKRS1: 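Enzyme assay of the cytosolic lysyl-tRNA synthetase in 384-well plates, read by luminescence. Target: Lysine-tRNA ligase, Plasmodium falciparum 3D7 (UniProt Q8IDJ8). Compounds at 30 µM. Direction is inferred from only a few compounds that gave an IC50; most scored high, so higher reads as stronger inhibition. Size under these conditions: about 69,000 compounds, about 49 of them at 50% or above in at least one test.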

The filed quantity is “Percent Effect” (%).
The record does not define 0% and 100%; most values in the screen are far below 50% and negative numbers occur (in some assays of this library far below -100).
Compounds were drawn at random from those tested, without regard to their results.

SMILES | LiHisRS | PfKRS1
CCCC(C)NC1CCN(c2ccc(-n3ccnc3C)cc2)CC1 (stereo not drawn) | 2.083% | 3.248%
Cn1cc(CCC(=O)N2CCN(Cc3ccncc3)CC2)cn1 | 13.7% | 1.31%
CCOc1cc(CN(C)CC(C)(C)O)ccc1OC(F)F | 12.94% | 2.896%
COc1cc(CNC2CCCN(c3cccnn3)C2)cc2c1OCO2 (stereo not drawn) | -2% | 3.466%
O=C(CCc1cc(Cl)no1)N1CCCCC1CCn1ccnc1 (stereo not drawn) | -31.43% | 10.33%
O=C1CN(CCCNC(=O)Nc2ccccn2)CCN1 | 18.75% | 0.01191%
OC1(CN2CCOC(CNc3cccnn3)C2)CCCCC1 (stereo not drawn) | 7.692% | 2.102%
Cc1c[nH]c(CN(C)C(=O)[C@@]23CNC[C@@H]2CN(c2ncccn2)C3)n1 | 11.39% | 7.535%
CCCN1C[C@H]2CC[C@@H]1CN(C(=O)Cc1c(C)nc(CC)[nH]c1=O)C2 | 9.836% | 4.438%
Cc1c(F)cccc1S(=O)(=O)NC(C)(C)CN | 6.579% | 6.036%
Cc1cccc(CNC[C@H]2COCc3nc4cccnc4n32)n1 | -2.778% | 3.37%
CCn1nc(C)c2nnn(CC(=O)Nc3cccc(F)c3)c(=O)c21 | 6.897% | 4.704%
CC(C)N(C)C(=O)c1ccc(Cl)c(NC(=O)COCC2CC2)c1 | 15.87% | 0.6717%
CN1CC2(CCN(c3nc(N)nc4c3CCNC4)CC2)OC1=O | 26.51% | 3.963%
Cn1cc(-c2ncnc3c2CCN(C(=O)N2CCOCC2)CC3)cn1 | 7.547% | 3.568%
O=C(NCC1CC1)C1CSCN1S(=O)(=O)c1cccc(F)c1 (stereo not drawn) | 23.08% | 5.042%
CN(Cc1ccoc1)c1ccc(-c2nccn2C)nn1 | 6.667% | -3.656%
CS(=O)(=O)N[C@H]1CN(CCOCc2ccccc2)C[C@@H]1C1CC1 | 4.839% | -1.898%
COC(=O)c1cccc(-c2nc(CC3CCN(C)CC3)no2)c1 | 13.33% | 0.871%
C[C@@H]1CN(C(=O)c2ccc(C#N)nc2)CC[C@@]1(O)C1CCOCC1 | 17.31% | 0.2081%
Cc1occc1C(=O)N1C[C@@H]2CCCO[C@@H]2[C@H](N(C)Cc2ccco2)C1 | 11.29% | 4.025%
Cc1ccc(C)c(Sc2nccn(C)c2=O)c1 | 15.32% | 7.079%
O=C(N1CCC(Oc2ccncc2)C1)C1(c2ccc(F)cc2)CC1 (stereo not drawn) | 19.18% | 1.077%
COc1cccc(S(=O)(=O)NC(=O)C2CC(c3ccccc3)=NO2)c1 (stereo not drawn) | 23.6% | 3.395%
O=C(Cc1ccccn1)N1CCC2(CCCN(CC3CCOCC3)C2)C1 (stereo not drawn) | 14.47% | 2.927%
CCn1cc(CN2CCCN(C(=O)c3cccn3C)CC2)cn1 | 0.885% | 2.831%
Cc1n[nH]c(C)c1-c1nccnc1CC1CCN(C(C)C)CC1 | -2.062% | -1.012%
CCOCCCNC(=O)c1nn(CC)cc1Br | -6.897% | -1.978%
Cc1nc(C)n(CC2CCCN2Cc2nc(N)c3ccccc3n2)n1 (stereo not drawn) | 36.49% | 0.03589%
Cc1nc(C2(NCC(=O)NCCc3cccs3)CCCC2)no1 | 17.14% | 5.514%
CCc1noc(C)c1C(=O)NCCCC(CC)(CC)C1OCCO1 | -0.8929% | 4.498%
O=C(Nc1cc(C(F)(F)F)c[nH]c1=O)c1ccco1 | 7.576% | 4.979%
Cc1ccc(CCCC(=O)N(C)CCN2CCOCC2)cc1 | 0% | -1.494%
Cc1ccccc1C(O)CNS(=O)(=O)Cc1cccc(C#N)c1 (stereo not drawn) | 4.959% | 6.134%
CCN(C)c1ncnc2c1CCN(Cc1csc(C)n1)CC2 | 15.04% | -1.572%
Cc1ccc(CNCc2nnc3n2CC(C(F)(F)F)CC3)o1 (stereo not drawn) | 20.51% | 8.726%
Cc1nc(CO[C@@H]2CN(Cc3ccco3)[C@@H]3COC[C@@H]32)cs1 | 17.74% | 9.786%
COc1nn(C)c2c1CCCN(C(=O)COc1ccccc1)C2 | 7.407% | -1.663%
COc1ccc(CCN2C(=O)O[C@@H]3CN(C4CCSCC4)C[C@@H]32)cc1 | 6.452% | 1.546%
Cc1cnn(C2CN(CC(O)c3ccc4c(c3)OCCO4)C2)c1 (stereo not drawn) | 32.04% | 6.963%
O=C(Cc1cccc(F)c1)N1CCc2ncnc(N3CCCC3)c2CC1 | 22.41% | 13.8%
CN(CC(=O)c1ccc2[nH]c(=O)[nH]c2c1)Cc1ccc2c(c1)OCO2 | 24.05% | 8.091%
Cc1cc(NCC2CC(=O)Nc3ccccc32)nc(C)n1 (stereo not drawn) | 12.68% | 0.4217%
Cc1cccc2cc(CN3CCC(N4CCOCC4)CC3)c(=O)[nH]c12 | 17.5% | 7.009%
Cc1nnsc1C(=O)N1CCN(CC2CC2)[C@@H]2CS(=O)(=O)C[C@@H]21 | 6.667% | 1.472%
Cc1noc(C2(NC(=O)c3cccnc3O)CCCCC2)n1 | 13.56% | 5.09%
Cc1nccn1-c1cccc(C2CCCN(C3CCCC3)C2)n1 (stereo not drawn) | 65.22% | 2.983%
CCNC(=O)CN1CCOC(c2ccccc2C(F)(F)F)C1 (stereo not drawn) | 6.14% | 3.947%
CCOc1ncccc1C(=O)N(C)Cc1ncc(C)c(OC)c1C | 16% | 4.444%
CCCc1ncc(C(=O)N2CCOc3ncccc32)s1 | -1.429% | 7.954%
COc1ccccc1CC1CCCN(CCC#N)C1 (stereo not drawn) | 10.67% | -1.111%
Cc1oc(-c2cccc(F)c2F)nc1CN(C)CCC(C)(C)O | 20.65% | -0.2987%
CCOc1ccc(Cl)c(C(=O)NC(Cc2ccccc2)C(N)=O)n1 (stereo not drawn) | 17.81% | 1.601%
CN(CCC(=O)N1CCCC(Cc2cccnc2)C1)Cc1cccnc1 (stereo not drawn) | 15.94% | 4.621%
Cc1cnc(N2CCc3cc(C(=O)O)c(N(C)C)nc3CC2)nc1 | 9.901% | 3.51%
Cc1ccsc1C(=O)N1CCCn2nnc(Cn3cccn3)c2C1 | 18.42% | -1.62%
CCCOc1ccc(C(=O)N[C@@H]2CCNC[C@H]2O)cc1Cl | 7.547% | 8.433%
COCCNCc1cc2ccc(C)c(C)c2[nH]c1=O | 8.633% | -1.11%
C=C(C)CN1CCN(Cc2cnc(OC)nc2)CC1 | 8.966% | 2.082%
CC(=O)N1CCC(c2cnc(NC3CCOCC3)cn2)CC1 | 40% | 1.759%
CCN(CC1CCOC1)C(=O)CCc1nc(C(C)(C)C)no1 (stereo not drawn) | -2.74% | 0.9059%
Cc1nc([C@H]2C[C@@H]3CCN(Cc4cnn(C)c4)C[C@H]3O2)sc1C | 6.849% | 7.738%
O=C(NCCc1ccccc1)NCC(O)c1cccc(F)c1 (stereo not drawn) | 14.04% | 0.6474%
CN(Cc1cnn(C)c1)Cc1nc(CCc2ccccc2)no1 | 0% | 2.925%

The first 7 entries again:

SMILES,LiHisRS,PfKRS1
CCCC(C)NC1CCN(c2ccc(-n3ccnc3C)cc2)CC1 (stereo not drawn),2.083%,3.248%
Cn1cc(CCC(=O)N2CCN(Cc3ccncc3)CC2)cn1,13.7%,1.31%
CCOc1cc(CN(C)CC(C)(C)O)ccc1OC(F)F,12.94%,2.896%
COc1cc(CNC2CCCN(c3cccnn3)C2)cc2c1OCO2 (stereo not drawn),-2%,3.466%
O=C(CCc1cc(Cl)no1)N1CCCCC1CCn1ccnc1 (stereo not drawn),-31.43%,10.33%
O=C1CN(CCCNC(=O)Nc2ccccn2)CCN1,18.75%,0.01191%
OC1(CN2CCOC(CNc3cccnn3)C2)CCCCC1 (stereo not drawn),7.692%,2.102%